Laboratory results reported in paper PMC4380928.
These are yes or no findings as the source states them, for the method shown. Some binding calls cover weakened binding; strength is not graded here.

The chains behind the UniProt entries cited, without tags or fusion partners. Where a name states a change or a piece, a line headed by the entry shows the natural chain unless it says otherwise.
UniProt O60636: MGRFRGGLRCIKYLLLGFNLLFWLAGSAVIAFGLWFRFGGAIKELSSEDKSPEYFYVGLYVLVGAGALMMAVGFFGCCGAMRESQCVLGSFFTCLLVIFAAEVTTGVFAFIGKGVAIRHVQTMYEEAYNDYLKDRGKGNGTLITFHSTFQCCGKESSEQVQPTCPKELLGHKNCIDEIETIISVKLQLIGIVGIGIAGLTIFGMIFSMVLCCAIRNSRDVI
UniProt P35568: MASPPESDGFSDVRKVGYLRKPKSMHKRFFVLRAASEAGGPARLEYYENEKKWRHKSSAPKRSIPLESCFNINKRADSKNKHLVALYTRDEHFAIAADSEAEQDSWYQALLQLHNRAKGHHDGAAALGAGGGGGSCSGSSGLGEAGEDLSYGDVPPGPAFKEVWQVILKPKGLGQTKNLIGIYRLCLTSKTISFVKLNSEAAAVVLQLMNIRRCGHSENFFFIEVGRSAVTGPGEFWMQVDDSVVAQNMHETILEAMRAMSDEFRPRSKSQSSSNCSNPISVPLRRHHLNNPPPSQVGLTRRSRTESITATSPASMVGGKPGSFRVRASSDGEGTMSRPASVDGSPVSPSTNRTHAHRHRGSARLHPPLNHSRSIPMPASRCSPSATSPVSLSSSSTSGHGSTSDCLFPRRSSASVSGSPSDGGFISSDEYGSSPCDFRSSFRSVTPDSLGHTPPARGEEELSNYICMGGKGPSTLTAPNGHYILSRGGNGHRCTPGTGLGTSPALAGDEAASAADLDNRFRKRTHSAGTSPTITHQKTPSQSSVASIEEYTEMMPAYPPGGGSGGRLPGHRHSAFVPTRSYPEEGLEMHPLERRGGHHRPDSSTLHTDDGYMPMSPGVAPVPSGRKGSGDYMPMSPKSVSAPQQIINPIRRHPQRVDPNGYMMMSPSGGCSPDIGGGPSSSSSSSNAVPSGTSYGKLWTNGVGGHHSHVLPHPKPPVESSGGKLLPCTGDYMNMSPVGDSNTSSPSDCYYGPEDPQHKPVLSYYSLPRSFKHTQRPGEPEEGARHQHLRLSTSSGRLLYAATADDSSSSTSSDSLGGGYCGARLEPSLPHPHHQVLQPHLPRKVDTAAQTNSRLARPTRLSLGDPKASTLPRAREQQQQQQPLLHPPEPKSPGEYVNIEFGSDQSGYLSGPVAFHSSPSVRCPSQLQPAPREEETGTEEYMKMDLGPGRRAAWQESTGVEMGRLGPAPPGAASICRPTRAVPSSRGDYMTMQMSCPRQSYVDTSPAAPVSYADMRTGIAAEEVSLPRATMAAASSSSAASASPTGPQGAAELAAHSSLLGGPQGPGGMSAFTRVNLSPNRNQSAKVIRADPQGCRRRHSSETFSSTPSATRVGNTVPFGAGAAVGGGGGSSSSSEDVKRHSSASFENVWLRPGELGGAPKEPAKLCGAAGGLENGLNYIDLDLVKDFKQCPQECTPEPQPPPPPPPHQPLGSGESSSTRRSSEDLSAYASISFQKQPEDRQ

How the values were obtained:
[1] = target: T1, TSPAN2 15-mer peptide centered on Y131, phosphorylated version (human) (UniProt O60636); test: peptide or protein array; PepStar peptide microarray (JPT) with phosphorylated and non-phosphorylated 15-mers, probed with serial dilutions of purified GST fusion proteins; detected with anti-GST-DyLight649 or primary and secondary antibodies; both purified
T1 sequence (peptide, phosphorylated version (phospho-tyrosine)): YEEAYNDYLKDRGKG

[2] = target: T2, TSPAN2 15-mer peptide centered on Y128, phosphorylated version (human) (UniProt O60636); test: as above
T2 sequence (peptide, phosphorylated version (phospho-tyrosine)): QTMYEEAYNDYLKDR

[3] = target: T3, TSPAN2 15-mer peptide centered on Y13, phosphorylated version (human) (UniProt O60636); test: as above
T3 sequence (peptide, phosphorylated version (phospho-tyrosine)): GGLRCIKYLLLGFNL

[4] = target: T4, TSPAN2 15-mer peptide centered on Y56, phosphorylated version (human) (UniProt O60636); test: as above
T4 sequence (peptide, phosphorylated version (phospho-tyrosine)): DKSPEYFYVGLYVLV

[5] = target: T5, TSPAN2 15-mer peptide centered on Y54, phosphorylated version (human) (UniProt O60636); test: as above
T5 sequence (peptide, phosphorylated version (phospho-tyrosine)): SEDKSPEYFYVGLYV

[6] = target: T6, TSPAN2 15-mer peptide centered on Y60, phosphorylated version (human) (UniProt O60636); test: as above
T6 sequence (peptide, phosphorylated version (phospho-tyrosine)): EYFYVGLYVLVGAGA

[7] = target: PIK3R3 (p55γ regulatory subunit of PI3 kinase), two-hybrid bait (human) (UniProt Q92569); test: two-hybrid; pairwise pY-Y2H with active FYN kinase co-expressed; growth on selective medium without histidine and uracil (SD5), β-galactosidase assay
[8] = target: PIK3R3 (p55γ regulatory subunit of PI3 kinase), two-hybrid bait (human) (UniProt Q92569); test: condition: only in the absence of active FYN kinase; two-hybrid; the same pairwise Y2H without active kinase: no FYN, or kinase-inactive FYN mutant (Fyn-KD, K299M)

binding [1] | binding [2] | binding [3] | binding [4] | binding [5] | binding [6] | binding [7] | binding [8] | Substance
no binding | no binding | no binding | no binding | no binding | no binding | – | – | GST-PIK3R3 (FL, aa 1-461) (from UniProt Q92569 1-461)
– | – | – | – | – | – | binds | no binding | IRS1, two-hybrid prey (from UniProt P35568 1-1242)
